Record: PubChem BioAssay AID504791 (Drosophila RNAi Screening Center, 2011)

Aim: 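Genes whose knock-down strengthens or weakens small-RNA reporter silencing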 (primary screen)
Cell system: Drosophila S2-derived reporter cells
Reagent: long dsRNA against Drosophila genes, about 150-250 ng dsRNA per well (siRNA assay); about 80-120 ng (miRNA assay)
Time to read-out: about 5 days (siRNA assay); about 4 days (miRNA assay)
Treatment: copper sulfate induction of reporters: 25 µM (siRNA assay); 200 mM stated (miRNA assay), 1-2 days before reading
Detection: 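Per-well ratio of Renilla over firefly light, expressed relative to that plate's average ratio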
Hit rule: 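a well was a first-pass pick when its plate-scaled ratio rose above 1.5 (siRNA assay) or 1.6 (miRNA assay), or dropped below 0.6; a gene counted only if two separate dsRNAs agreed on retest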
The screen tested about 23,000 reagents; this is a random part of those that have a named target and a result. Of all reagents, 199 (0.86%) are marked active. 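Plate-scaled ratios behind the calls are not deposited; printed light signals are raw; many rows marked increased or decreased are still called inactive.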 Names joined by + are all predicted targets of the reagent. Not stated in the record: the direction of the score.

target gene	amplicon	stable siRNA reporter change	miRNA reporter change	stable assay Renilla, run 1 (luminescence)	stable assay firefly, run 1 (luminescence)	call
CG33287	DRSC22929			5271	4.01e5	inactive
CG12106	DRSC17805			6631	3.53e5	inactive
CG17141	DRSC15178			5675	2.64e5	inactive
CG30001	DRSC05191			5258	5.38e5	inactive
Nepl6	DRSC03242			4231	4.08e5	inactive
CG34286	DRSC13372			4319	4.35e5	inactive
CG34286	DRSC21790			9380	4.85e5	inactive
PlexA	DRSC17220			7911	4.15e5	inactive
Exn	DRSC09673			9717	4.02e5	inactive
Exn	DRSC10077			8367	3.80e5	inactive
cal1	DRSC15725			8734	4.00e5	inactive
CG14646	DRSC12232			3864	3.12e5	inactive
CG14646	DRSC21316			9201	5.49e5	inactive
Vajk3	DRSC01883			6978	1.13e6	inactive
Vajk3	DRSC25405		reporter ratio raised past the hit cutoff			inactive
Gem3	DRSC11144			6075	5.00e5	inactive
CG13751	DRSC06422			6726	4.24e5	inactive
CG3009	DRSC18263			9358	4.94e5	inactive
CG9302	DRSC03191			4668	4.98e5	inactive
DptA	DRSC07404			7970	3.79e5	inactive
CG1494	DRSC20509			6139	4.64e5	inactive
HDAC6	DRSC20252			9151	8.10e5	inactive
CG5639	DRSC15851			6722	5.98e5	inactive
Hsp27	DRSC11190			6791	3.37e5	inactive
CG31189	DRSC16198			6667	2.51e5	inactive
RhoGAP100F	DRSC15409			6926	4.74e5	inactive
CG7011 + Prp31	DRSC10760			8647	3.71e5	inactive
Est-6	DRSC11162			5602	3.06e5	inactive
CG4133	DRSC00639			5786	2.36e5	inactive
CG4133	DRSC23122			5683	3.80e5	inactive
CG16813	DRSC02520			6704	3.25e5	inactive
Ada1-1 + Ada1-2	DRSC01220			5451	4.37e5	inactive
Ada1-1 + Ada1-2	DRSC01222			4970	3.78e5	inactive
Smyd4-3	DRSC07041			7997	3.90e5	inactive
CG6231	DRSC15997			7267	2.96e5	inactive
CG10914	DRSC06010			6279	3.05e5	inactive
hpo	DRSC06065			10483	3.66e5	inactive
pall	DRSC10364			7963	4.76e5	inactive
CG42710	DRSC01034			4523	3.31e5	inactive
CG14154	DRSC10156			6235	3.81e5	inactive
snu	DRSC16589			7981	3.99e5	inactive
a	DRSC04667			4760	2.00e5	inactive
a	DRSC04668			7356	4.01e5	inactive
CG31882	DRSC01084			4771	4.40e5	inactive
prtp	DRSC19804			3696	3.61e5	inactive
prtp	DRSC22494			2859	3.45e5	inactive
CG14434	DRSC17927			5767	3.51e5	inactive
Ogdh	DRSC09854			10363	4.31e5	inactive
Ogdh	DRSC09855			7594	4.45e5	inactive
Ir60d	DRSC04218			5495	3.08e5	inactive
CG14551	DRSC14894			5928	2.55e5	inactive
CG6106	DRSC19971			3671	2.67e5	inactive
CG8850	DRSC07287			6134	3.54e5	inactive
Tengl2	DRSC21968			9706	5.85e5	inactive
CG14223	DRSC19580			7687	4.86e5	inactive
CG6295	DRSC16012			7855	4.87e5	inactive
CG11902	DRSC14434			4267	4.31e5	inactive
CG10513	DRSC14248			7584	5.15e5	inactive
CG12111	DRSC17808			5468	2.74e5	inactive
Pal1	DRSC06106			9575	4.89e5	inactive
ss	DRSC17069			7023	3.88e5	inactive
ebd1	DRSC08565			10397	5.18e5	inactive
CG30349	DRSC06421			6326	4.46e5	inactive
CG30349	DRSC06839			6284	4.77e5	inactive
CG43367	DRSC08299			6456	4.47e5	inactive
CG43367	DRSC08301			6054	2.93e5	inactive
CG43367	DRSC08309			6031	3.58e5	inactive
St4	DRSC07008			5507	2.84e5	inactive
CG5504	DRSC04701			17478	1.54e6	inactive
CG32855	DRSC13131			5790	5.30e5	inactive
Spn31A	DRSC02780			7244	4.48e5	inactive
CG13365	DRSC17899			6478	3.74e5	inactive
CG13071	DRSC09954			7531	4.03e5	inactive
CG8534	DRSC16439			4504	3.55e5	inactive
pdm3	DRSC06076			6531	3.13e5	inactive
pdm3	DRSC06490			5554	2.68e5	inactive
pdm3	DRSC22326			8417	4.74e5	inactive
pdm3	DRSC23181			4359	2.86e5	inactive
CG14120	DRSC10124			6979	4.37e5	inactive
CG10435	DRSC14246			9590	4.37e5	inactive
CG17290	DRSC06662			6700	4.34e5	inactive
CG17364	DRSC10269			8097	5.58e5	inactive
CG17364	DRSC10270			3564	3.06e5	inactive
CG17364	DRSC22689			4683	3.66e5	inactive
Cdc42	DRSC20228	reporter ratio lowered past the hit cutoff		5188	6.06e5	inactive
Nos	DRSC03381			7582	4.90e5	inactive
chm	DRSC03341			66433	3.40e5	inactive
CG15673	DRSC04263			7843	5.20e5	inactive
CG13193	DRSC06318			5531	2.58e5	inactive
CG15221	DRSC19659			5323	3.95e5	inactive
Orco	DRSC12358			6764	4.00e5	inactive
CG2906	DRSC06841			6963	4.58e5	inactive
CG11069	DRSC14289			9163	3.18e5	inactive
Tg	DRSC03047			7810	5.53e5	inactive
CG7889	DRSC20066			3012	3.05e5	inactive
Cht8	DRSC04546			6248	5.55e5	inactive
IP3K1 + hpRNA:CR18854	DRSC23313			9078	5.41e5	inactive
Bin1	DRSC16843			7334	3.25e5	inactive
Hmx	DRSC15884			8158	4.39e5	inactive
Hmx	DRSC16706			8173	4.39e5	inactive
Hmx	DRSC22799			4551	4.00e5	inactive
capt	DRSC00676			8018	4.68e5	inactive
capt	DRSC00806			7548	3.42e5	inactive
CG10934	DRSC06017			7763	2.94e5	inactive
TwdlY	DRSC19153			4028	3.77e5	inactive
epsilonTry	DRSC07611			6798	4.38e5	inactive

Quoted from the listing (8 entries):
target gene	amplicon	stable siRNA reporter change	miRNA reporter change	stable assay Renilla, run 1 (luminescence)	stable assay firefly, run 1 (luminescence)	call
CG31882	DRSC01084			4771	4.40e5	inactive
prtp	DRSC19804			3696	3.61e5	inactive
prtp	DRSC22494			2859	3.45e5	inactive
CG14434	DRSC17927			5767	3.51e5	inactive
Ogdh	DRSC09854			10363	4.31e5	inactive
Ogdh	DRSC09855			7594	4.45e5	inactive
Ir60d	DRSC04218			5495	3.08e5	inactive
CG14551	DRSC14894			5928	2.55e5	inactive
